This is one part of the list.
Experiments:
Test in all cases: log2 fold change, soluble protein after heating vs DMSO (PISA); higher = thermal stabilisation; K562 cells, 10 uM, 30 min; active = over 0.2 and 3.5 SD of the protein, either way, in both replicates (recomputed)
bafetinib = compound: Cc1ccc(NC(=O)c2ccc(CN3CC[C@H](N(C)C)C3)c(C(F)(F)F)c2)cc1Nc1nccc(-c2cncnc2)n1 [bafetinib]
How it was run: (§1)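 Aliquots of K562 cells (2×10^6 cells/mL) treated with 10 μM compound for 30 min were heated for 3 min over 48°C-58°C. After pooling and extraction in PBS with 0.5% NP-40 at 4°C, soluble protein from a 21,000xg, 90 min spin was quantified by TMTpro 16plex LC-MS/MS with channel sums equalised. Thermal stability is expressed against control samples, from duplicates, as a log2 fold change.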

Amino acid sequences for entries named in this document (tags omitted). A change or cut given only in a name is not applied to a line headed by its entry.
UniProt P49790, whole entry, looked up: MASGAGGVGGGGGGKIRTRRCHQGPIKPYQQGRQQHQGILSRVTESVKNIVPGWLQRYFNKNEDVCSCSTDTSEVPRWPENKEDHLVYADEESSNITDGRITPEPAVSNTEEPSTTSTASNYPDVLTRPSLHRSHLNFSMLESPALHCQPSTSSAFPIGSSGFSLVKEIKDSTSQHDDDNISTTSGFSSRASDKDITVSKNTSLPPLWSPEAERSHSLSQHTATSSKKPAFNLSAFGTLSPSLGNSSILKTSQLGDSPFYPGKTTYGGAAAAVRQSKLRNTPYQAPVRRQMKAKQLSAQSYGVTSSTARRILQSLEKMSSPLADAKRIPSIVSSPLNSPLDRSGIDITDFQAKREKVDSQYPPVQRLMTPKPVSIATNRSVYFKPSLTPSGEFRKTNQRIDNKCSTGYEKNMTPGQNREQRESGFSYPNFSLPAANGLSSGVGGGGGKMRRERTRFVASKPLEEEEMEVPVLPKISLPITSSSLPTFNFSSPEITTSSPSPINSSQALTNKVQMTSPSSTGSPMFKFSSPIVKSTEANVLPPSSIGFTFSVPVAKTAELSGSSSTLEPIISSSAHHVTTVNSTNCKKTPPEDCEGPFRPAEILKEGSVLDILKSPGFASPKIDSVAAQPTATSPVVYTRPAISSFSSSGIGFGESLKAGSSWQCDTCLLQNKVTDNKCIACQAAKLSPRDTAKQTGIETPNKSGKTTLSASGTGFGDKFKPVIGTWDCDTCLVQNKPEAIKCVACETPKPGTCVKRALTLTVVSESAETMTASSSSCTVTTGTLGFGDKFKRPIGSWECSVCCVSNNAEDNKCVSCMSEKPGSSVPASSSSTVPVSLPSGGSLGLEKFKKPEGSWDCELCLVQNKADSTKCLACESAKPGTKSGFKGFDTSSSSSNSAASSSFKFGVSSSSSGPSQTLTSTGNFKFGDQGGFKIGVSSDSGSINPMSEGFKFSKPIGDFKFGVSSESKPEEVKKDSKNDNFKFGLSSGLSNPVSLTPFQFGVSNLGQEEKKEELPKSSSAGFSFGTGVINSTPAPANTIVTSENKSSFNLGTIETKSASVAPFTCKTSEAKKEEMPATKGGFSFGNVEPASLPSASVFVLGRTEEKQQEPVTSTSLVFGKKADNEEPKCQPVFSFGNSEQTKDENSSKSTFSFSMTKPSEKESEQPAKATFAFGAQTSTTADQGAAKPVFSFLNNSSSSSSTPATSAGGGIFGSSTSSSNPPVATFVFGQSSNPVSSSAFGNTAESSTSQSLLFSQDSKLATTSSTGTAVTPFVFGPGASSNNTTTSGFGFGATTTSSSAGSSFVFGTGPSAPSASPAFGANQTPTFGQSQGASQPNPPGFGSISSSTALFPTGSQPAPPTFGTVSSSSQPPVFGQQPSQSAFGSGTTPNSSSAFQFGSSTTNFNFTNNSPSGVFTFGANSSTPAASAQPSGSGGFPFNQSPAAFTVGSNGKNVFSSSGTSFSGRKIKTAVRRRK
UniProt Q6GQQ9: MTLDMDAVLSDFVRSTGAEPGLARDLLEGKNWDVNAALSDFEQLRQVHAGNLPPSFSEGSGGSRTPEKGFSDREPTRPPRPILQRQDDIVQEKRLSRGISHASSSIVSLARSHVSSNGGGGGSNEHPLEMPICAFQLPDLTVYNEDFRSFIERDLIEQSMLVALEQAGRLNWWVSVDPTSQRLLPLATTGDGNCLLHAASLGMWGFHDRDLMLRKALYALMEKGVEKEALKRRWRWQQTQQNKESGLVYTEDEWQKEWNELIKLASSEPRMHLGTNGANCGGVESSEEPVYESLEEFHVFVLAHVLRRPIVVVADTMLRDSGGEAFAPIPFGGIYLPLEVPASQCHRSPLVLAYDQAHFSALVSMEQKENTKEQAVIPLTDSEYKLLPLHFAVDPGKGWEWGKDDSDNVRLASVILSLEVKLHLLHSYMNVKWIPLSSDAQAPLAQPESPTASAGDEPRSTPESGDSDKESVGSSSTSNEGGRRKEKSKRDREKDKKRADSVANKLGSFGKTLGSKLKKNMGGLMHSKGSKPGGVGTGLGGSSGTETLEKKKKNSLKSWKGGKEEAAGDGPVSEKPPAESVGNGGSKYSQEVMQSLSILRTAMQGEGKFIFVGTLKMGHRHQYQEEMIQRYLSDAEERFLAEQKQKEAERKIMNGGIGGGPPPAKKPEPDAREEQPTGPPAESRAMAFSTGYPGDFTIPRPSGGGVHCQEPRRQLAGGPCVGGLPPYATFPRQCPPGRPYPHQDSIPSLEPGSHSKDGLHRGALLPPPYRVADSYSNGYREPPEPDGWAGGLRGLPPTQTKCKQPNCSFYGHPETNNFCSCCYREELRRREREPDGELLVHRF
UniProt Q92882: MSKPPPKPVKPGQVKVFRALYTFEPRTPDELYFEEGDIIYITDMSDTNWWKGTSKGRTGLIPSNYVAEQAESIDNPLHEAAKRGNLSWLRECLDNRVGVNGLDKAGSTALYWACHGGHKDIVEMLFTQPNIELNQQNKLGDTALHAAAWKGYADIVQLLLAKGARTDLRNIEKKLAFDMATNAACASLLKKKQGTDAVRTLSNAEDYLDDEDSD
UniProt Q9NZT2: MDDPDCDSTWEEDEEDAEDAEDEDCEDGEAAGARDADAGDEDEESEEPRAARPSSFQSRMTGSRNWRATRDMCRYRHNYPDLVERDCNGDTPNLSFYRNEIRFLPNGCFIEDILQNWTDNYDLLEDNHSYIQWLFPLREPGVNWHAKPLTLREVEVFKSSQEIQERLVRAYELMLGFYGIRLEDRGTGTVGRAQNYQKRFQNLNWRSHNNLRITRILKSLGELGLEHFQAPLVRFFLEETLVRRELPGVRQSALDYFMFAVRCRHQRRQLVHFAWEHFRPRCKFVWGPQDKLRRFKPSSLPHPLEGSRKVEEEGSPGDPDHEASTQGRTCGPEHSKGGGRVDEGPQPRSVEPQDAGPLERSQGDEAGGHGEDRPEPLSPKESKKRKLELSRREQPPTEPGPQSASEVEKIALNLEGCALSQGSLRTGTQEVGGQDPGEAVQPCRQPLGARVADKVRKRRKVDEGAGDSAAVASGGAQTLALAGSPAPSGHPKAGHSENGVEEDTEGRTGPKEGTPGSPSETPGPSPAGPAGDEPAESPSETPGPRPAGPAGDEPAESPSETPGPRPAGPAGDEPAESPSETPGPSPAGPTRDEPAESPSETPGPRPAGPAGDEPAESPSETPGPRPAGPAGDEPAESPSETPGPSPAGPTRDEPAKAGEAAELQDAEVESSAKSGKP
UniProt Q5SWX8: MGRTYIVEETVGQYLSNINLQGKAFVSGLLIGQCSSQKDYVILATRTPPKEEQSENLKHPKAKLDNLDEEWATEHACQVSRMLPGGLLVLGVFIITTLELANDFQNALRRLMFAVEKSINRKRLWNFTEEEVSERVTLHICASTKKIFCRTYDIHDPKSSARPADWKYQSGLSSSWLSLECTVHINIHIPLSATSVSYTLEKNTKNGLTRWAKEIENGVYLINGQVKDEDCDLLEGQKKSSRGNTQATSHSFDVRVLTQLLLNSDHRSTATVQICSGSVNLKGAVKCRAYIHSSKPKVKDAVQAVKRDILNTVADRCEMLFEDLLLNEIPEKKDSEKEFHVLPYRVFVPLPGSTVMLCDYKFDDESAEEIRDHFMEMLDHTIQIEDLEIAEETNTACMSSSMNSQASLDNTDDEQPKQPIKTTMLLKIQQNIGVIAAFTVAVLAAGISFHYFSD
UniProt Q9NRP0: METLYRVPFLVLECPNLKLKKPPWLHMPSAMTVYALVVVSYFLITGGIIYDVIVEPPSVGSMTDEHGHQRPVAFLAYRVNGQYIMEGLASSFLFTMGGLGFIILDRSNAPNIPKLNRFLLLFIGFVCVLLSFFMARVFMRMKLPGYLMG
UniProt P35658: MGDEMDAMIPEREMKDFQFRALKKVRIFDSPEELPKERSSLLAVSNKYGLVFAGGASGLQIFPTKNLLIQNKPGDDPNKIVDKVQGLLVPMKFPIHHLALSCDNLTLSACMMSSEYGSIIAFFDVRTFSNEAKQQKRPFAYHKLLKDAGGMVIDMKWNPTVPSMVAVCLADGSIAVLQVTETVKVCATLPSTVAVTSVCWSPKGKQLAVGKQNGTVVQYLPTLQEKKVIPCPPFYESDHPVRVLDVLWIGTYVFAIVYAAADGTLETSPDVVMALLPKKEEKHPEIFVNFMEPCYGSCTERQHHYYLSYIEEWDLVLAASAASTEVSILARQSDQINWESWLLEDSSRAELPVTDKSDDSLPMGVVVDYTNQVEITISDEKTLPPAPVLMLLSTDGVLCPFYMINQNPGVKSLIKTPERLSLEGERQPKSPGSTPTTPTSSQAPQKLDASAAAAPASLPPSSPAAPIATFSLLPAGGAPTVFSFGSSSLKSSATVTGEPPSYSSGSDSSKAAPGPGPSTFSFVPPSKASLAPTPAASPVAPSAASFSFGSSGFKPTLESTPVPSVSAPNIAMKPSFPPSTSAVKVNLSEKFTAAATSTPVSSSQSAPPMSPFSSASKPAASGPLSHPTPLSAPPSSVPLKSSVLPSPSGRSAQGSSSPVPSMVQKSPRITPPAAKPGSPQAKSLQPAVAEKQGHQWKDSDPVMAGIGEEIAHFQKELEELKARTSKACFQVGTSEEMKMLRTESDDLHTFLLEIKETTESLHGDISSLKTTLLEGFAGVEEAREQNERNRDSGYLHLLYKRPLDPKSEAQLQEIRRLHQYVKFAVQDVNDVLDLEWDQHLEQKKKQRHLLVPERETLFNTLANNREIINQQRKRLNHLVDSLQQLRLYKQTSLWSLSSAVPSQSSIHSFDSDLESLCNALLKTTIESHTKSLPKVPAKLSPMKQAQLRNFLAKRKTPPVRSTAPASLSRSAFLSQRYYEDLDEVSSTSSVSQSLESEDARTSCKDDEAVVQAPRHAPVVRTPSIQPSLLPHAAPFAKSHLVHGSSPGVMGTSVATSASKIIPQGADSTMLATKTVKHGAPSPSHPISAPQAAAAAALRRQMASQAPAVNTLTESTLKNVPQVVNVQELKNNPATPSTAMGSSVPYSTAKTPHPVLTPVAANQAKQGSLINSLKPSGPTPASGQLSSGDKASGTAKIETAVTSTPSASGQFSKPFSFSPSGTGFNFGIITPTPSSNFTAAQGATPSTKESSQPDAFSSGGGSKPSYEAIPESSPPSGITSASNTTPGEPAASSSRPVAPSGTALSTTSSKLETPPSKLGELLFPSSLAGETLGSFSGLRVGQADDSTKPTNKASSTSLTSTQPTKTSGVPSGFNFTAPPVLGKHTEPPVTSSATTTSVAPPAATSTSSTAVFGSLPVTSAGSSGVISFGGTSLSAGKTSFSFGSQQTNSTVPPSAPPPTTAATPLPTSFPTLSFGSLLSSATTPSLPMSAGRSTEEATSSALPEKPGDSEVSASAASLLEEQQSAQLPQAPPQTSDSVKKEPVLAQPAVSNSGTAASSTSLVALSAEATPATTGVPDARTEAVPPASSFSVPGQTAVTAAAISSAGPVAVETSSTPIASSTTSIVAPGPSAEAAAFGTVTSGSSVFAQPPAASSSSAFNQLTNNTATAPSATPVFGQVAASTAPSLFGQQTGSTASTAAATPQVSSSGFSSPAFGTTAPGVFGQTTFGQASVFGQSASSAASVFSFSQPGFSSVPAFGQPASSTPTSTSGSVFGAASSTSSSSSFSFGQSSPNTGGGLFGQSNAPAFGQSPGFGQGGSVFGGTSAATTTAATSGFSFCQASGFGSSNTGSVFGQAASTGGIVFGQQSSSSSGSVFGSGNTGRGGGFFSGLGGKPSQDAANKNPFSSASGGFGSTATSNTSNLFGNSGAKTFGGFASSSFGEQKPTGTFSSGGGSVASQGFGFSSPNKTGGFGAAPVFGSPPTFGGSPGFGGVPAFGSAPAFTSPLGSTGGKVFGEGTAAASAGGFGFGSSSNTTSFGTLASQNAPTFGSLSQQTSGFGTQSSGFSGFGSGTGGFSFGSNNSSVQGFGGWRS
UniProt Q9UKX7: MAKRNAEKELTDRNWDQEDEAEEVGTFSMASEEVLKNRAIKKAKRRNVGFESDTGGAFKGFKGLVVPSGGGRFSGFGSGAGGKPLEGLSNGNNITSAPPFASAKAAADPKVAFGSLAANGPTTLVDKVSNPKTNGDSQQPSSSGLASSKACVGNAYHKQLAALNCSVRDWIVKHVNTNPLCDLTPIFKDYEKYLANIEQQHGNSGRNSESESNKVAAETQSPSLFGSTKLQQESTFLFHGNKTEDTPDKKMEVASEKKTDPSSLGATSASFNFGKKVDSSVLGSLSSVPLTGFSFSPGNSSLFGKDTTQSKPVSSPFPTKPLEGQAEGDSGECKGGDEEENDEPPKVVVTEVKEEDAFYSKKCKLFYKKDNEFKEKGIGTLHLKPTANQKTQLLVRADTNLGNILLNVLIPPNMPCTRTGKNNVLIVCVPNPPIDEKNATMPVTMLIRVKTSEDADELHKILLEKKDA

[1] = compound: Cc1cccc(CC(=O)N2CCc3c2ccc(-c2cn(C)c4ncnc(N)c24)c3F)n1
How it was run: as §1

nilotinib = compound: Cc1cn(-c2cc(NC(=O)c3ccc(C)c(Nc4nccc(-c5cccnc5)n4)c3)cc(C(F)(F)F)c2)cn1 [nilotinib]
How it was run: as §1

[2] = compound: Cc1nc(Nc2n[nH]c3c2CN(C(=O)N[C@H](CN(C)C)c2ccccc2)C3(C)C)c2sccc2n1
How it was run: as §1

dasatinib = compound: Cc1nc(Nc2ncc(C(=O)Nc3c(C)cccc3Cl)s2)cc(N2CCN(CCO)CC2)n1 [dasatinib]
How it was run: as §1

[3] = compound: Cc1ncc(-c2ccnc(Nc3ccc(S(C)(=O)=O)cc3)n2)n1C(C)C
How it was run: as §1

[4] = compound: Cn1cc(-c2ccc3c(c2)CCN3C(=O)Cc2cccc(C(F)(F)F)c2)c2c(N)ncnc21
How it was run: as §1

[5] = compound: Cn1cc(-c2ccc3nnc(C(F)(F)c4ccc5ncccc5c4)n3n2)cn1
How it was run: as §1

tipifarnib = compound: Cn1cncc1[C@@](N)(c1ccc(Cl)cc1)c1ccc2c(c1)c(-c1cccc(Cl)c1)cc(=O)n2C [tipifarnib]
How it was run: as §1

mubritinib = compound: FC(F)(F)c1ccc(/C=C/c2nc(COc3ccc(CCCCn4ccnn4)cc3)co2)cc1 [mubritinib]
How it was run: as §1

[6] = compound: NC(=O)Nc1cc(-c2cccc(F)c2)sc1C(=O)N[C@H]1CCCNC1
How it was run: as §1

[7] = compound: NC(=O)c1cnc(N[C@@H]2CCCC[C@@H]2N)nc1Nc1cccc(-n2nccn2)c1
How it was run: as §1

[8] = compound: NC1(c2ccc(-c3nc4ccn5c(=O)[nH]nc5c4cc3-c3ccccc3)cc2)CCC1
How it was run: as §1

[9] = compound: NCC(=O)Nc1ccc(-n2nc(C(F)(F)F)cc2-c2ccc3c(ccc4ccccc43)c2)cc1
How it was run: as §1

entinostat = compound: Nc1ccccc1NC(=O)c1ccc(CNC(=O)OCc2cccnc2)cc1 [entinostat]
How it was run: as §1

vorinostat = compound: O=C(CCCCCCC(=O)Nc1ccccc1)NO [vorinostat]
How it was run: as §1

citarinostat = compound: O=C(CCCCCCNC(=O)c1cnc(N(c2ccccc2)c2ccccc2Cl)nc1)NO [citarinostat]
How it was run: as §1

silmitasertib = compound: O=C(O)c1ccc2c(c1)nc(Nc1cccc(Cl)c1)c1ccncc12 [silmitasertib]
How it was run: as §1

[10] = compound: O=C1NC(=O)C(c2cnc3ccccn23)=C1c1cn2c3c(cc(F)cc13)CN(C(=O)N1CCCCC1)CC2
How it was run: as §1

[11] = compound: c1cc(OCCN2CCCCC2)cc(-c2n[nH]c3ccc(-c4nnc[nH]4)cc23)c1
How it was run: as §1

Measured: log2 fold change

NUP93 (UniProt Q8N1F7)
inactive: bafetinib -0.007 | [1] 0.114 | nilotinib -0.033 | [2] -0.052 | dasatinib -0.092 | [3] 0.021 | [4] -0.024 | [5] -0.047 | tipifarnib -0.058 | mubritinib 0.014 | [6] 0.004 | [7] -0.029 | [8] -0.118 | [9] -0.066 | entinostat 0.057 | vorinostat 0.169 | citarinostat 0.074 | silmitasertib 0.05 | [10] 0.035 | [11] -0.043

NUP153 (UniProt P49790)
inactive: bafetinib -0.088 | [1] -0.02 | nilotinib 0.032 | [2] -0.021 | dasatinib 0.042 | [3] -0.019 | [4] -0.022 | [5] -0.021 | tipifarnib 0.048 | mubritinib -0.006 | [6] 0.054 | [7] 0.015 | [8] -0.002 | [9] 0.005 | entinostat -0.01 | vorinostat 0.018 | citarinostat 0.019 | silmitasertib 0.088 | [10] 0.025 | [11] -0.105

OTUD7B (UniProt Q6GQQ9)
inactive: bafetinib -0.056 | [1] 0.239 | nilotinib -0.082 | [2] 0.08 | dasatinib 0.086 | [3] 0.135 | [4] -0.008 | [5] -0.087 | tipifarnib -0.069 | mubritinib -0.045 | [6] 0.027 | [7] -0.12 | [8] -0.174 | [9] -0.131 | entinostat 0.028 | vorinostat -0.026 | citarinostat 0.091 | silmitasertib 0.152 | [10] 0.06 | [11] 0.203

P4HA1 (UniProt P13674)
inactive: bafetinib 0.047 | [1] -0.005 | nilotinib -0.018 | [2] 0.069 | dasatinib 0.067 | [3] -0.073 | [4] -0.117 | [5] 0.006 | tipifarnib 0.09 | mubritinib -0.112 | [6] 0.001 | [7] -0.016 | [8] -0.036 | [9] 0.067 | entinostat -0.012 | vorinostat -0.027 | citarinostat 0.004 | silmitasertib 0.032 | [10] 0 | [11] -0.042

NUP210 (UniProt Q8TEM1)
inactive: bafetinib -0.178 | [1] 0.053 | nilotinib -0.125 | [2] -0.009 | dasatinib -0.118 | [3] -0.038 | [4] 0.055 | [5] 0 | tipifarnib -0.039 | mubritinib 0.034 | [6] 0.022 | [7] -0.173 | [8] -0.19 | [9] -0.126 | entinostat 0.047 | vorinostat 0.054 | citarinostat 0.022 | silmitasertib -0.033 | [10] -0.004 | [11] -0.023

OSTF1 (UniProt Q92882)
inactive: bafetinib -0.085 | [1] 0.078 | nilotinib 0.027 | [2] 0.016 | dasatinib -0.066 | [3] 0.342 | [4] -0.02 | [5] 0.034 | tipifarnib -0.069 | mubritinib -0.01 | [6] 0.016 | [7] -0.064 | [8] -0.115 | [9] -0.021 | entinostat -0.07 | vorinostat -0.011 | citarinostat 0.031 | silmitasertib 0.039 | [10] -0.116 | [11] -0.038

OGFR (UniProt Q9NZT2)
inactive: bafetinib -0.041 | [1] 0.114 | nilotinib -0.024 | [2] -0.093 | dasatinib -0.114 | [3] -0.008 | [4] 0.036 | [5] -0.002 | tipifarnib 0.025 | [6] 0.049 | [7] -0.198 | [8] 0.015 | [9] 0.068 | entinostat -0.02 | vorinostat 0.096 | citarinostat 0.121 | silmitasertib 0.003 | [10] -0.019 | [11] -0.092
active: mubritinib 0.328

ODR4 (UniProt Q5SWX8)
inactive: bafetinib 0.034 | [1] 0.035 | nilotinib -0.013 | [2] -0.004 | dasatinib -0.072 | [3] -0.033 | [4] 0.022 | [5] -0.002 | tipifarnib -0.088 | mubritinib 0.065 | [6] -0.039 | [7] 0.03 | [8] -0.139 | [9] -0.033 | entinostat -0.043 | vorinostat -0.029 | citarinostat 0.025 | silmitasertib -0.015 | [10] -0.014 | [11] -0.049

NSMCE4A (UniProt Q9NXX6)
inactive: bafetinib -0.145 | [1] -0.144 | nilotinib 0.189 | [2] -0.254 | dasatinib -0.051 | [3] 0.03 | [4] 0.025 | [5] -0.131 | tipifarnib 0.026 | [6] 0.181 | [7] 0.059 | [8] 0 | [9] -0.023 | entinostat -0.087 | vorinostat -0.155 | citarinostat -0.018 | silmitasertib 0.149 | [10] -0.038 | [11] -0.067
active: mubritinib 0.552

NT5DC2 isoform 2 (UniProt Q9H857)
inactive: bafetinib -0.023 | [1] -0.076 | nilotinib 0.038 | [2] 0.009 | dasatinib -0.009 | [3] -0.017 | [4] 0.005 | [5] 0.052 | tipifarnib -0.02 | mubritinib 0.021 | [6] -0.028 | [7] 0.003 | [8] -0.035 | [9] -0.011 | entinostat -0.006 | vorinostat -0.004 | citarinostat -0.001 | silmitasertib -0.014 | [10] -0.029 | [11] -0.008

4 neighbouring entries already listed, quoted:
P4HA1 (UniProt P13674)
inactive: bafetinib 0.047 | [1] -0.005 | nilotinib -0.018 | [2] 0.069 | dasatinib 0.067 | [3] -0.073 | [4] -0.117 | [5] 0.006 | tipifarnib 0.09 | mubritinib -0.112 | [6] 0.001 | [7] -0.016 | [8] -0.036 | [9] 0.067 | entinostat -0.012 | vorinostat -0.027 | citarinostat 0.004 | silmitasertib 0.032 | [10] 0 | [11] -0.042

NUP210 (UniProt Q8TEM1)
inactive: bafetinib -0.178 | [1] 0.053 | nilotinib -0.125 | [2] -0.009 | dasatinib -0.118 | [3] -0.038 | [4] 0.055 | [5] 0 | tipifarnib -0.039 | mubritinib 0.034 | [6] 0.022 | [7] -0.173 | [8] -0.19 | [9] -0.126 | entinostat 0.047 | vorinostat 0.054 | citarinostat 0.022 | silmitasertib -0.033 | [10] -0.004 | [11] -0.023

OSTF1 (UniProt Q92882)
inactive: bafetinib -0.085 | [1] 0.078 | nilotinib 0.027 | [2] 0.016 | dasatinib -0.066 | [3] 0.342 | [4] -0.02 | [5] 0.034 | tipifarnib -0.069 | mubritinib -0.01 | [6] 0.016 | [7] -0.064 | [8] -0.115 | [9] -0.021 | entinostat -0.07 | vorinostat -0.011 | citarinostat 0.031 | silmitasertib 0.039 | [10] -0.116 | [11] -0.038

OGFR (UniProt Q9NZT2)
inactive: bafetinib -0.041 | [1] 0.114 | nilotinib -0.024 | [2] -0.093 | dasatinib -0.114 | [3] -0.008 | [4] 0.036 | [5] -0.002 | tipifarnib 0.025 | [6] 0.049 | [7] -0.198 | [8] 0.015 | [9] 0.068 | entinostat -0.02 | vorinostat 0.096 | citarinostat 0.121 | silmitasertib 0.003 | [10] -0.019 | [11] -0.092
active: mubritinib 0.328

Next entries follow:

OSTC (UniProt Q9NRP0)
inactive: bafetinib -0.137 | [1] 0.027 | nilotinib -0.047 | [2] -0.013 | dasatinib -0.059 | [3] -0.029 | [4] 0.057 | [5] 0.069 | tipifarnib -0.013 | mubritinib 0.044 | [6] -0.062 | [7] 0.028 | [8] -0.107 | [9] -0.134 | entinostat 0.039 | vorinostat -0.001 | citarinostat 0.074 | silmitasertib -0.011 | [10] 0.05 | [11] -0.067

NUP214 isoform 5 (UniProt P35658)
inactive: bafetinib 0.015 | [1] 0.049 | nilotinib -0.032 | [2] -0.056 | dasatinib -0.029 | [3] -0.046 | [4] -0.091 | [5] -0.038 | tipifarnib -0.017 | mubritinib 0.036 | [6] -0.019 | [7] -0.039 | [8] 0.001 | [9] -0.031 | entinostat 0.024 | vorinostat 0.027 | citarinostat 0.058 | silmitasertib 0.168 | [10] 0.113 | [11] -0.038

NUP50 (UniProt Q9UKX7)
inactive: bafetinib -0.037 | [1] -0.02 | nilotinib 0.004 | [2] -0.02 | dasatinib -0.03 | [3] -0.02 | [4] 0.019 | [5] 0.033 | tipifarnib 0.024 | mubritinib 0.044 | [6] 0.017 | [7] -0.01 | [8] 0.027 | [9] 0.025 | entinostat -0.012 | vorinostat -0.042 | citarinostat 0.038 | silmitasertib 0.003 | [10] -0.062 | [11] -0.012

OTULIN (UniProt Q96BN8)
inactive: bafetinib -0.039 | [1] 0.066 | nilotinib -0.091 | [2] -0.124 | dasatinib -0.169 | [3] 0.033 | [4] -0.051 | [5] 0.235 | tipifarnib -0.081 | mubritinib 0.152 | [6] 0.008 | [7] -0.017 | [8] -0.183 | [9] -0.093 | entinostat 0.097 | vorinostat 0.038 | citarinostat -0.005 | silmitasertib 0.086 | [10] -0.143 | [11] -0.077

NUFIP2 (UniProt Q7Z417)
inactive: bafetinib 0.063 | [1] -0.041 | nilotinib 0.071 | [2] 0.097 | dasatinib 0.102 | [3] -0.039 | [4] -0.112 | [5] -0.123 | tipifarnib 0.048 | mubritinib -0.054 | [6] 0.087 | [7] 0.056 | [8] 0.103 | [9] 0.043 | entinostat -0.012 | vorinostat -0.026 | citarinostat -0.028 | silmitasertib 0.014 | [10] 0.1 | [11] -0.093

Source: the supplement of paper PMC10849652
